# Results taken from US9035022B2 (Salk Institute for Biological Studies, priority 2010, dated 2015).
# Test: general procedure: Boc solid-phase peptide synthesis; MBHA resin; carbodiimides such as DIC, DCC
# Conditions: whole synthesis
Substance,final HPLC purity (214 nm),final HPLC purity (capillary zone electrophoresis (CZE) and analytical RP-HPLC at 214 nm)
"cyclo(30-33)[DPhe^12,Nle^21,38,Leu(Me)^27,40,Glu^30,DAph(Cbm)^32,Lys^33]Ac-hCRF (9-41); [DAph(Cbm)^24]Astressin B",78%,–
"[CMP^19, Aib^24,32]-Astressin B",–,94%
